20 compounds from the supplement of paper PMC8326762, “A Small Molecule Inhibitor of Pex3–Pex19 Interaction Disrupts Glycosome Biogenesis and Causes Lethality in Trypanosoma brucei” (Frontiers in Cell and Developmental Biology, 2021) can be followed below.

For assay [1], the system named is Saccharomyces cerevisiae HF7c pdr5Δ. The experiment in a line: general growth inhibition of yeast HF7c pdr5Δ in -Leu -Trp medium, relative to DMSO; higher = stronger general growth inhibition. Conditions: 100 µM; 24 h.
For assay [2], the system named is human PEX3-PEX19 interaction (yeast two-hybrid). The experiment in a line: growth inhibition of yeast two-hybrid strain reporting HsPex3-HsPex19 interaction, relative to DMSO; higher = stronger inhibition of human Pex3-Pex19 interaction / growth. Conditions: 100 µM; 24 h; 3-aminotriazole 10 mM.
Assay [3] has as its system T. brucei Pex3-Pex19 interaction (yeast two-hybrid). The experiment in a line: growth inhibition of yeast two-hybrid strain reporting TbPex3-TbPex19 interaction, relative to DMSO; higher = stronger inhibition of T. brucei Pex3-Pex19 interaction / growth. The conditions noted are these: 100 µM; 24 h.

Counter-ions that a name gives are not always drawn. This is one part of the list. Single values of this set are uncertain.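 Yeast growth was read as optical density at 600 nm. The two-hybrid strains grew without histidine, so growth needed the Pex3–Pex19 binding; a compound counted as trypanosome-selective if it cut growth of the trypanosome-pair strain by more than 65% and the human-pair strain by less than 65%.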

The compound `O=C(N[C@H]1CN2CCC1CC2)c1ccc(Cl)cc1` returned a general growth inhibition in assay [1] of 42.2%. For the same compound, the values for the growth inhibition in assay [2] and in assay [3] were 51.6% and 66.3%, respectively.

Compound `O=C(O)CC[N+](=O)[O-]` [3-Nitropropionic acid] displayed a general growth inhibition in assay [1] of 40.3%. Moreover, the growth inhibition was 50.4% in assay [2] and 72.6% in assay [3].

Regarding `O=S1(=O)N(CCN2CC=C(c3c[nH]c4cc(F)ccc34)CC2)c2cccc3c2N1CCC3`, the general growth inhibition in assay [1] turned out to be 6.43%. Further, the growth inhibition is -3.34% in assay [2] and 28.6% in assay [3].

In assay [1], `C[N+]1(C)[C@@H]2CC(OC(=O)[C@H](CO)c3ccccc3)C[C@H]1[C@@H]1O[C@@H]12` (single isomer, unassigned; (-)) [(-)-Scopolamine methyl nitrate] showed a general growth inhibition of 51.3%. In addition, the results for the growth inhibition in assay [2] and in assay [3] were 50.1% and 61.5%, respectively.

As for `CCCN(CCC)C1CCc2cccc(O)c2C1` (racemic) [(±)-8-Hydroxy-DPAT hydrobromide], the general growth inhibition in assay [1] turned out to be 38.8%. Moreover, the growth inhibition was determined as 48.6% in assay [2] and 50.6% in assay [3].

In assay [1], `Cc1cc2c(C(C)C)c(O)c(O)c(C=O)c2c(O)c1-c1c(C)cc2c(C(C)C)c(O)c(O)c(C=O)c2c1O` [Gossypol] returned a general growth inhibition of 36.2%. Moreover, the growth inhibition in assay [2] amounted to 27.9%; in assay [3] it was 47.7%.

Take `C[N+](C)(C)CC#CCOC(=O)Nc1cccc(Cl)c1`: in assay [1], the general growth inhibition was 55.5%. The growth inhibition in assay [2] stood at 45.8%; in assay [3], 67.9%.

Compound `O=c1ccc2[nH]cc(C3=CCNCC3)c2[nH]1` returned a general growth inhibition in assay [1] of 25.7%. Further, the growth inhibition in assay [2] was -6.2%; in assay [3], 48.9%.

For `COc1ccc2c(c[n+](C)c3c4cc5c(cc4ccc23)OCO5)c1OC` [Chelerythrine chloride], in assay [1], the general growth inhibition was 52.9%. The growth inhibition in assay [2] amounted to 35%; in assay [3], 41.8%.

As to `CC1C2Cc3ccc(O)cc3C1(C)CCN2CC1CC1` (single isomer, unassigned; (+)) [(+)-Cyclazocine], in assay [1], the general growth inhibition turned out to be 37.2%. Moreover, the growth inhibition stood at 49.4% in assay [2] and 58.3% in assay [3].

As for `C=CCN1CC[C@]23c4c5ccc(O)c4O[C@H]2C(=O)CC[C@@]3(O)[C@H]1C5` [Naloxone hydrochloride], the general growth inhibition in assay [1] was found to be 47.1%. Moreover, the figures for the growth inhibition in assay [2] and in assay [3] were 49.2% and 64.9%, respectively.

In assay [1], `COc1ccc(C(=O)N2CCCC2=O)cc1` [Aniracetam] displayed a general growth inhibition of 50.7%. Also, the growth inhibition in assay [2] turned out to be 46.2%; in assay [3], 65.5%.

Take `CN1[C@@H]2C[C@@H](OC(=O)[C@H](CO)c3ccccc3)C[C@H]1[C@H](O)C2` (racemic) [(+/-)-Anisodamine]: the general growth inhibition in assay [1] was 35.2%. Also, the results for the growth inhibition in assay [2] and in assay [3] were 22.9% and 60.4%, respectively.

With `NNC(N)=O` [Semicarbazide hydrochloride], the general growth inhibition in assay [1] was 46.2%. Further, the growth inhibition in assay [2] was 49.4%; in assay [3], 69.5%.

In the case of `CCCN(CCC)C1CCc2ccc(O)cc2C1` (stereo not drawn) [R-(+)-7-Hydroxy-DPAT hydrobromide], the general growth inhibition in assay [1] came to 15.2%. The values for the growth inhibition in assay [2] and in assay [3] were 38.5% and 57.9%, respectively.

`N[C@]1(C(=O)O)CC[C@H](C(=O)O)C1` (racemic) [trans-(±)-ACPD] had a general growth inhibition in assay [1] of 43.3%. Moreover, the results for the growth inhibition in assay [2] and in assay [3] were 41.5% and 59.2%, respectively.

In assay [1], `C[C@@]12N[C@@H](Cc3ccccc31)c1ccccc12` [(-)-MK-801 hydrogen maleate] had a general growth inhibition of 36.2%. The growth inhibition in assay [2] stood at 28%; in assay [3], 56.4%.

In the case of `C[C@@]12C(=O)OC(=O)[C@]1(C)[C@H]1CC[C@@H]2O1` [Cantharidin], the general growth inhibition in assay [1] was found to be 85.3%. In addition, the growth inhibition in assay [2] is 75.6%; in assay [3] it was 73.6%.

In assay [1], `C1CCc2nnnn2CC1` [Pentylenetetrazole] registered a general growth inhibition of 51.6%. Moreover, the growth inhibition was found to be 46.9% in assay [2] and 57% in assay [3].

For the compound `C#CCOC(=O)C1=CCCN(C)C1` [Arecaidine propargyl ester hydrobromide], in assay [1], the general growth inhibition was found to be 43.6%. Further, the values for the growth inhibition in assay [2] and in assay [3] were 44.4% and 64.1%, respectively.
